PubChem BioAssay AID1347423 (Functional Genomics Laboratory (NCATS/FGL), 2020)
Out of some 52,000 sequences screened, about 210 (0.4%) were called active.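 The calls were made as follows: active = gene whose silencing raises cell survival under the drug, median off-target-corrected z-score across its silencing RNAs 2 or more; inactive = the rest.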 This is one part of the list.

Assay: Resistance to Poly (ADP-Ribose) Polymerase inhibitor: Gene Identification via Genome-wide siRNA Screen
Settings: mouse BRCA2 R2336H ES cells, olaparib, CellTiter-Glo viability; hits give high values
How it was run: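 Mouse BRCA2 R2336H ES cells were reverse-transfected with siRNA (20 nM final), treated at 48 h with 500 nM olaparib, and read by CellTiter-Glo after 72 h. Scores: MAD-based z per siRNA, median per gene, seed off-target correction.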

Sequence | z-score
GCCGAGCAGUUACUUGAGATT against 3000004C01Rik | inactive: 0.396
GGAUUUGUCAAACAACACATT against Ostm1 | inactive: -0.271
GGAACUGAUAACCAGCCAGTT against 1700029B21Rik | inactive: -0.44
CGAUAAGGAUUACAGUGAGTT against Epb4.1l1 | inactive: -1.29
GCAAGAGACCAUGAGAAAUTT against 4932411G06Rik | inactive: -0.915
GGAAAAAGCUGAGGUACCATT against B230205M03 | inactive: -1.34
CCAAAUCUGGUGUGAUUCATT against C230030N03Rik | inactive: 0.0576
GGAGAAGGAUCUGAACGAGTT against Nog | inactive: -1.3
GGGUCCUACAGAAGGAACUTT against Mea1 | inactive: 1.1
GGACUAAUCCCAUUUUCUUTT against Zfp422 | inactive: 0.0465
GGUCUACCAUGACACACGUTT against Prrg2 | inactive: -1.22
GGAACAAAGACAUGUAUCATT against BC021513 | inactive: 0.453
GGUUUGGUUUUCAUUGUUATT against Nhlrc2 | inactive: 0.62
CCCAGGGUACCUCACAUCUTT against Nrp1 | inactive: -0.507
GGCAAUUUUUCAAGGCUUATT against D130007C19Rik | inactive: -1.34
CCGAUGACAAUCGGCCCUUTT against Gja8 | inactive: -0.706
GGUCAUAGCUGGAUUCCUUTT against Olfr1453 | inactive: 0.973
GGGUUGUUUGUCUUGUUCGTT against 2610028F08Rik | inactive: -1.22
GGAGGACUAGUUGUGACUUTT against Aldh1a1 | inactive: -0.299
GAUGAAGAAGUAGAAAUGGTT against 4933401N24Rik | inactive: 0.432
GCUCAGAGAACCUUAUAAGTT against Cyp4f15 | inactive: -0.501
GGAUUCUCACAAGUAAUUCTT against Ifi203 | inactive: -0.18
GGCCCUUUUAAAUAACUACTT against 1110004F10Rik | inactive: 1.23
GGACCAGCUGAAGAUGGGATT against MGC47262 | inactive: 0.913
GGAGUUGCAUCACUUGCUCTT against BC016579 | inactive: -0.0441
GGAAAUCAUCUAUUCGGACTT against Klrc1 | inactive: 0.835

Sequence | z-score
GCAUCGUCUGUGAAAUAUGTT against Map3k7 | inactive: 0.924
GGAAAUGAAGCCAUGUUAATT against Arhgef6 | inactive: 1.49
GACUGAACAGAUCUACUCUTT against Klra7 | inactive: -0.466
CGCAUCACCCAGUACAUCUTT against 6720425G15Rik | inactive: 4.04
GGAGAAAUACAACUGAAAATT against Pcdhb7 | inactive: -0.644
GCUACAAACCGUUUAAUAATT against D2Ertd750e | inactive: -2.04
CGGGUUUCAUUAUUAUUCCTT against Foxa1 | inactive: 0.42
GGUCAUUCACGUCUGCGUUTT against Kcnj8 | inactive: -0.274
GGUUCUGAGGACAUGUGCATT against Asb18 | inactive: -1.22
GGAACAGCAUUGGAUGAAGTT against BC023882 | inactive: 0.228
GGAUACAGUCAGACUCUUGTT against Blmh | inactive: -1.7
GAUUUUCCUCUACUGUCCUTT against U90926 | inactive: 0.165
GGAAAUAUGUUAUUUCCCATT against Cach | inactive: 1.51
GGGACUCUUCUACGAGUUUTT against Lims2 | inactive: 0.759
GGUGAAGUACAGAAUAUGCTT against Sycp3 | inactive: -0.89
GGCCGAACCUGUCAAAGAATT against Hif3a | inactive: -0.0527
GAGACAGAUAGGCAGAAAATT against Olfr478 | inactive: -1.59
GGACUACCUGGUACAGUCATT against Usmg1 | inactive: -1.21
AUGGAUAGGGAUUAAGAGCTT against Scn4b | inactive: 0.161
GGUGCAGAAUCUCUCAUUGTT against Mrpl30 | inactive: 1.32
GGUUGGACGUGGUGAAGAATT against Chtf18 | inactive: -1.52
GGAAGUCAGACAGAUUUAATT against Prss33 | active: 3.17
GCCACUGCUAUAUUCGCAUTT against Slc35d3 | inactive: 0.577
GGUAGUCAUUAUUAGGUGUTT against Wdt2 | inactive: -0.412
CCGCGUGUAUAAGUUGGUGTT against Mrpl9 | inactive: -0.171
GCUUAUCAAAACAUCGUGATT against Zfp536 | inactive: 1.86

Copied from the entries so far for reference:
Sequence | z-score
GGUAGUCAUUAUUAGGUGUTT against Wdt2 | inactive: -0.412
CCGCGUGUAUAAGUUGGUGTT against Mrpl9 | inactive: -0.171

(further entries)

Sequence | z-score
GGAGAUGAUGAUUUACAAATT against Spred1 | inactive: 0.521
GGAGGUCUACGACCUGAAUTT against 1110032A13Rik | inactive: -0.95
CCGGAGAGAAGGUCUAAUGTT against Galnt2 | inactive: -0.646
GGAGAUUUCUGAAACUAGATT against Tiaf2 | inactive: -0.635
GGUAACUGUGGAGAACUUUTT against Pigk | inactive: 0.253
GGCUCUGGAAAACUCAAAUTT against A230048G03Rik | inactive: 1.27
GGUUUCCACCAAACAAAACTT against Bmp3 | inactive: 1.63
GCAAGUGGCUGAGUACUAATT against R74862 | inactive: -2.43
UCGAGGAGUAGUAGCUUAATT against Acsl5 | inactive: -0.761
GGAGGAGCUAUACAAAGCCTT against Rab3il1 | inactive: 1.97
GGUAUCUGACAUCAUUUCUTT against Csnd | inactive: -1.04
GGACACACAUCAUUGCCCATT against Olfr649 | inactive: -0.135
GGACAUUAAAAGUCUCUUATT against Kbtbd3 | inactive: -1.4
GGAAAAGAAAAUCGAGACCTT against 4932431F02Rik | inactive: 0.371
GCCCUAGUGUCUGAAAAAATT against Sfrp5 | inactive: -0.318
GGUAAAGAUCGACCUUUUGTT against Stx8 | inactive: -0.458
CCAACACUACCAGAGAACGTT against Pfkfb1 | inactive: 0.295
CGGUAGCCAUAUUAAUAUCTT against Spink2 | inactive: 0.225
GGAGGUUAACAGCUGCCAATT against Rnaset2 | inactive: 0.113
GGAGGAGAGGUACAAACGGTT against Cxxc1 | inactive: -1.2
GGAGGUCUGUGCUUACUUGTT against Fnbp4 | inactive: 0.369
GCUUCCUAACCAGGUUUGATT against 4430402I18Rik | inactive: -0.515
GGGUCACGGGAACUCAAAATT against Mlf1 | inactive: -0.379
GCCAAAGCAAGAUCCCACUTT against Mrcl | inactive: 1.3
CGAUGGCCUGAAUCACUUGTT against Hbb-b1 | inactive: 0.624
GCUUUAUCACCGAUGUCGATT against Slc29a4 | inactive: -0.271

Copied from the list:
GGCUCUGGAAAACUCAAAUTT against A230048G03Rik – z-score: inactive: 1.27
GGAGGUCUGUGCUUACUUGTT against Fnbp4 – z-score: inactive: 0.369
GGGUCACGGGAACUCAAAATT against Mlf1 – z-score: inactive: -0.379

Additional records:

Sequence | z-score
GGCUAUCAUGAACUUGGAUTT against Gpd2 | inactive: 1.96
GGCCUCAGUUGGACUUGAATT against Scn10a | inactive: 0.383
CCAAAUAUCACACACCCGATT against 4933439F11Rik | inactive: 0.449
GGGCUACAUAGGCUUAGACTT against Ptpru | inactive: 0.553
GGUUUUAGAAUGUCUUUCATT against Hrsp12 | inactive: 0.263
GGGCGGUUCAAAAGGUCAGTT against Cacnb1 | inactive: 0.407
GGGCUCUUUAGUACUAGAATT against Spn | inactive: -0.849
GGAAGAGACGAAAUCCUUUTT against Sos1 | inactive: 2.1
CGGGACUGUAAAUUGACCUTT against Scube3 | inactive: 0.121
GCACCUGAGAAGCUCAUUGTT against Bclp2 | inactive: -0.732
CCUCUCCUACACUUCAAAATT against Cmya4 | inactive: 0.746
GGACUCUGGUUAGGAGUUGTT against Tbce | inactive: 0.295
GGUUCCAAGAGUGACAAUATT against Nnt | inactive: -0.807
GUCUACCAGAUCCUUCCCUTT against H2-Q8 | inactive: -1.06
CGAGCAUUCACCGUACGUATT against Idb4 | inactive: 0.999
CCCUCAUGUUUCAUUUGUGTT against Txnl2 | inactive: 2.69
GGUUUCAAUAAUCCAGGAATT against 1300019C06Rik | inactive: 0.169
GGAUGGAUCUUCUUGAUUATT against 5230400J09Rik | inactive: -0.406
GGUCCUACCAUCUUAUAUGTT against Serpina5 | inactive: 0.26
GCAAUGAGUAUUCAUGCAATT against Sec61a2 | inactive: -0.423
GGGACUAUGACAAAACAGCTT against Atad2 | inactive: 1.08
GCUGCUAAAGGUGACAUUCTT against Col4a4 | inactive: -1.11
GCUGUCUUAUUGUGAACCUTT against Olfr1173 | inactive: -0.694
GGCCAAUCAGCCAUCCUAUTT against Lilrb4 | inactive: 0.0505
GAAAUAGAUGAAGACCGGATT against Ppp1r1a | inactive: -0.283
GCCCUGUUCCAAAUGUAACTT against 1700003E24Rik | inactive: 0.443

Reformatted: results already given

| Sequence | z-score |
| --- | --- |
| GGAACAGCAUUGGAUGAAGTT against BC023882 | inactive: 0.228 |
| GGAUACAGUCAGACUCUUGTT against Blmh | inactive: -1.7 |
| GAUUUUCCUCUACUGUCCUTT against U90926 | inactive: 0.165 |
